Measurements reported in PubChem BioAssay AID686937 (Drosophila RNAi Screening Center, 2013).

Test: 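Knock-downs that reduce output of a secreted reporter enzyme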 (primary screen)
System: Drosophila S2 cells expressing secreted horseradish peroxidase
Reagents: long dsRNA against Drosophila genes
Duration: about 5.5 days (5 days dsRNA, then 12 h reporter induction)
Treatment: reporter expression induced after 5 days of dsRNA, read 12 h later; inducer not stated
Measured: 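Chemiluminescent measurement of peroxidase in the medium 12 h after reporter induction, following 5 days of dsRNA, given as a z-score per plate; higher means more secretion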
Reading the numbers: z-score: higher = more reporter secreted into medium
In all, the deposit lists about 23,000 reagents; shown is an unselected part of those that have a named target and a result. 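Reduced-secretion tags in replicate 1 do not always agree with the z-scores; no criterion for assigning the tags was given.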 A plus sign joins genes that one reagent is predicted to hit. Further read-outs or replicates are left out here. Not given: the amount of reagent.

For Marc (Mitochondrial amidoxime reducing component) [DRSC06614], what does the deposit list?
z-score, replicate 1: 0.01

What is on record for CG31626 + CG8677 [DRSC21844]?
z-score, replicate 1: 0.45

What is on record for salm (spalt major) [DRSC03606]?
z-score, replicate 1: 0.07

Which result is listed for CG3520 [DRSC04383]?
z-score, replicate 1: 0.28

For Gr98a (Gustatory receptor 98a) [DRSC14719], how do the results read?
z-score, replicate 1: -1.55

How did the screen score p120ctn (p120 catenin) [DRSC07753]?
z-score, replicate 1: 0.41

What did the screen give for cnk (connector enhancer of ksr) [DRSC07595]?
z-score, replicate 1: 0.07

How did the screen score CG11041 [DRSC06025]?
z-score, replicate 1: 0.31

For E(bx) (Enhancer of bithorax) [DRSC08172], how do the results read?
z-score, replicate 1: 0.22

What did the screen give for E(bx) (Enhancer of bithorax) [DRSC08509]?
z-score, replicate 1: -3.62; phenotype, replicate 1: reduced secretion

For E(bx) (Enhancer of bithorax) [DRSC08583], how do the results read?
z-score, replicate 1: -0.14

For Ulp1 [DRSC19339], how do the results read?
z-score, replicate 1: 0.06

With CG11523 [DRSC11669], how do the results read?
z-score, replicate 1: 0.55

Which result is listed for lin-52 [DRSC18106]?
z-score, replicate 1: 0.34

What did the screen give for Mtpbeta (Mitochondrial trifunctional protein beta subunit) [DRSC04663]?
z-score, replicate 1: 0.33

How did the screen score NtR [DRSC04628]?
z-score, replicate 1: 0.2

For CG32111 (retired record) [DRSC09203], how do the results read?
z-score, replicate 1: 0.79

For CG14861 [DRSC14984], what was measured?
z-score, replicate 1: 0.33

What is on record for CG13223 [DRSC06344]?
z-score, replicate 1: 0.08

What is on record for CG16890 [DRSC01890]?
z-score, replicate 1: 0.44

With hiro (highroad) [DRSC08564], what was measured?
z-score, replicate 1: -0.04

What is on record for CG10512 [DRSC11615]?
z-score, replicate 1: 0.34

With CG17195 [DRSC15188], what does the deposit list?
z-score, replicate 1: 0.13

Which result is listed for CG4957 [DRSC02793]?
z-score, replicate 1: -0.71

What did the screen give for Tpr2 (Tetratricopeptide repeat protein 2) [DRSC03461]?
z-score, replicate 1: 0.14

With Npc2d (Niemann-Pick type C-2d) [DRSC14551], what was measured?
z-score, replicate 1: 0.24

What is on record for Phb1 (Prohibitin 1) [DRSC03563]?
z-score, replicate 1: -0.08
